Source: paper PMC7862700
Only a part is listed here, and it is no random draw. At the low end of the ranking the order means little.

Molecular target: SPI1 (UniProt P17947)
Assay: DAPPL (digital affinity profiling via proximity ligation, sequencing)
Conditions: 10 mM Tris-HCl pH 7.5, 50 mM NaCl, 1 mM DTT, 4% glycerol, room temperature, 30 min; GST-TFs on glutathione beads, 16-mer random dsDNA library, 0.1% …; high values mean tight binding; double strand, one strand shown; scale: fold enrichment (6-mer frequency, TF over GST control)

Sequence	binding signal
GTGTAC	0.943
CAGATA	0.937
GTCTCG	1.33
GGCAGC	0.8
GCTATG	1.13
CAACGA	0.989
GTGACC	1.32
GGTGTT	0.97
TAGTGT	1.12
TCAGCC	0.981
GAATGC	0.949
TGGCGT	0.982
GGCCTT	1.18
GCGTCA	0.977
GTTTGT	0.96
TCCAGA	0.946
CCATAG	0.84
GATAGT	0.751
ATCGCA	0.95

Sequence	binding signal
TCGAAC	0.949
TAGCAT	1.07
GCATTT	1.58
GAAGCC	0.975
GGCATT	1.05
GCCCCG	1.08
GGATCA	0.838
ACAGAA	0.982
TAGGTA	0.938
TATGTC	1.06
ACTGTA	1.09
GGGATT	0.839
GCAATT	1.23
GCAGGT	0.83
GTAATT	1.25
ACAAGT	0.819
ATTGTA	1.09
GTATGA	0.949
AGTACT	1.25

Exported bar-delimited: entries from further up
Sequence | binding signal
TAGCAT | 1.07
GCATTT | 1.58
GAAGCC | 0.975
GGCATT | 1.05
GCCCCG | 1.08
GGATCA | 0.838
ACAGAA | 0.982
TAGGTA | 0.938
TATGTC | 1.06
ACTGTA | 1.09
GGGATT | 0.839
